Data: US6900026B2, “Methods for identifying compounds as antioxidants” (priority 1996, dated 2005)

Experiments:
Sod2CJE(−/−) animals = test: Behavioral analysis and neuropathology of treated Sod2CJE(−/−) animals; type: in vivo
Method: Treated Sod2CJE(−/−) animals were observed daily from 10 days through to greater than five weeks for behavioral abnormalities compared to litter mate controls. Daily video recordings of up to 10 minutes were made to longitudinally track the development of behavioral changes. A total of 187 video recordings were made of 63 animals from 10 to 23 days of age.
For pathology, the brains were removed from the sacrificed animals and fixed in 10% buffered formalin for up to 7 days. They were then processed, embedded, and sectioned. In some cases representative sections were made every 20 sections or so at 7 microns thickness throughout the brain and stained with hematoxylin and eosin for examination by light microscopy. In other cases, the entire brain was sectioned at 8 microns throughout. […]
During the course of an experiment, each mouse is evaluated daily for weight, lethargy, lack of appetite, its vital signs and for any indication of neurological disorders (observed for circling behavior, dystonia, trembling or the like. Video records can be made for later evaluation, for example for side-by-side comparisons or for observing changes over time. Cardiac histopathology and central nervous system tissue analysis are carried out after death of the animal or after sacrifice of the animal.

Sod2(+/+) animals = test: Lipid in liver by Oil red-O staining, treated Sod2(+/+) animals; type: in vivo, mouse; parameters: key to Lipid Mode (score) / Lipid Mean (score): 0=no observable lipid in sections; 1=mild diffuse speckled distribution of lipid; 2=more intense speckled pattern; 3=coalescence of small lipid droplets into large intercellular droplets; 4=massive intercellular lipid droplet accumulation; conditions: MnTBAP treated Sod2(+/+); for Lipid % Control: control = untreated (−/−) 6-10 days; for Lipid Mean (score) / Lipid Mode (score): score 0-4

SMILES	animals developing auditory induced seizures (Sod2CJE(−/−) animals; Euk-8 treated Sod2CJE(−/−) animals which survive to 21 days)	age at which gait disturbance began (Sod2CJE(−/−) animals; MnTBAP treated Sod2CJE(−/−) animals)	Lipid % Control (Sod2(+/+) animals; 12 days old, n=3) [%]	Lipid Mean (score) (Sod2(+/+) animals; 12 days old, n=3)	Lipid Mode (score) (Sod2(+/+) animals; 12 days old, n=3)	Lipid % Control (Sod2(+/+) animals; 14 days old, n=4) [%]	Lipid Mean (score) (Sod2(+/+) animals; 14 days old, n=4)	Lipid Mode (score) (Sod2(+/+) animals; 14 days old, n=4)	Lipid % Control (Sod2(+/+) animals; 17 days old, n=4) [%]	Lipid Mean (score) (Sod2(+/+) animals; 17 days old, n=4)	Lipid Mode (score) (Sod2(+/+) animals; 17 days old, n=4)
[Cl-].[Mn+3].[O-]c1ccccc1C=NCCN=Cc1ccccc1[O-] [Euk-8]	5 of 9										
O=C(O)c1ccc(-c2c3nc(c(-c4ccc(C(=O)O)cc4)c4ccc([nH]4)c(-c4ccc(C(=O)O)cc4)c4nc(c(-c5ccc(C(=O)O)cc5)c5ccc2[nH]5)C=C4)C=C3)cc1.[Mn] [MnTBAP, Manganese 5,10,15,20-tetrakis(4-benzoic acid) porphyrin]		about 12 days of age	0	0	0	6	0.25	0.5	38	1.5	2
